Test results: article PMC6389929

Chains of the proteins cited; added tags and fusions are not shown.
UniProt Q96Q89: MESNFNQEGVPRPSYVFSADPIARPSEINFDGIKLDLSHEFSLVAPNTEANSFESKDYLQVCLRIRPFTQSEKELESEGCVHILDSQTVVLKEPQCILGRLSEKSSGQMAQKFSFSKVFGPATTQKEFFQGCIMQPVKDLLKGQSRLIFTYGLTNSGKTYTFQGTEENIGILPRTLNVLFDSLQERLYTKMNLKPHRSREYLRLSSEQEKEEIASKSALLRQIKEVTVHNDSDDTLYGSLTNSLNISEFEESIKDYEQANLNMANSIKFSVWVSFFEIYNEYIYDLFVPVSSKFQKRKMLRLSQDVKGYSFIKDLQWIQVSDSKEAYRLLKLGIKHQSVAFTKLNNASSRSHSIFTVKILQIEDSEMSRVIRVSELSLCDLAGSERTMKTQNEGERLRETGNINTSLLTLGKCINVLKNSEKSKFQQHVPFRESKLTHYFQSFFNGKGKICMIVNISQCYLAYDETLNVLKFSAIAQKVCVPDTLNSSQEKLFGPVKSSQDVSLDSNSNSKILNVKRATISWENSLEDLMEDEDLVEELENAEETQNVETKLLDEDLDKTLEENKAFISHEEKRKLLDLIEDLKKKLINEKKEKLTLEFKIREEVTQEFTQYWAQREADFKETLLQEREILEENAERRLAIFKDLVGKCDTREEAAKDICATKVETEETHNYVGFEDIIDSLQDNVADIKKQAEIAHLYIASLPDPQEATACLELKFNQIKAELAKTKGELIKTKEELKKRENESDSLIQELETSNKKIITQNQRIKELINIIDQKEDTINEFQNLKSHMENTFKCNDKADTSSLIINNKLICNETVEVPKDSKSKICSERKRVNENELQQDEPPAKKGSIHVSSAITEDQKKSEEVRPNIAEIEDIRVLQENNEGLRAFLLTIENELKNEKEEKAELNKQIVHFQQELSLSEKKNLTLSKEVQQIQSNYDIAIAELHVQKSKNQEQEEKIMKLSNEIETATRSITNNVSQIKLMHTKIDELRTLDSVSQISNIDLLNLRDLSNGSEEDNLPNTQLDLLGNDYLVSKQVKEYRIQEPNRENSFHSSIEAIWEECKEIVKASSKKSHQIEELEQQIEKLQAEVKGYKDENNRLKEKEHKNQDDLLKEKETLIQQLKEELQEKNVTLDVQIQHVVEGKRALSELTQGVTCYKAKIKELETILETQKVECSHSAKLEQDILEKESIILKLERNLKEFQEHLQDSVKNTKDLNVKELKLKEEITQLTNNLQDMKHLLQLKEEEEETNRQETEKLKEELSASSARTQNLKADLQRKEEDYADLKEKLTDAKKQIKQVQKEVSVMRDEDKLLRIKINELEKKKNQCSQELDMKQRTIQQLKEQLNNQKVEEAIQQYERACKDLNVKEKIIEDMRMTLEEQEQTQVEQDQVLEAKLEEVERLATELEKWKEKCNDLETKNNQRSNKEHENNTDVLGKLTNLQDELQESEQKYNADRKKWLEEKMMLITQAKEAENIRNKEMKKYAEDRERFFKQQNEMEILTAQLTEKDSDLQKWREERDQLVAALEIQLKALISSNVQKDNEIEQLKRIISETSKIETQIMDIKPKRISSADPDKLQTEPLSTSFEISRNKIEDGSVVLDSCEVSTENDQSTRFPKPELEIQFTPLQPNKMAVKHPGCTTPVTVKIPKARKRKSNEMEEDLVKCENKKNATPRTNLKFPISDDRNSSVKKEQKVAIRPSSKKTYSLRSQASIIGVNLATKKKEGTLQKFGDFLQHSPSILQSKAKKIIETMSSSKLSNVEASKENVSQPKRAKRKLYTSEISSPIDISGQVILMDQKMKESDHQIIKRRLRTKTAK

Biological target: T1, FLAGBirA*-tagged FBXO38 (UniProt Q6PIJ6)
T1 sequence: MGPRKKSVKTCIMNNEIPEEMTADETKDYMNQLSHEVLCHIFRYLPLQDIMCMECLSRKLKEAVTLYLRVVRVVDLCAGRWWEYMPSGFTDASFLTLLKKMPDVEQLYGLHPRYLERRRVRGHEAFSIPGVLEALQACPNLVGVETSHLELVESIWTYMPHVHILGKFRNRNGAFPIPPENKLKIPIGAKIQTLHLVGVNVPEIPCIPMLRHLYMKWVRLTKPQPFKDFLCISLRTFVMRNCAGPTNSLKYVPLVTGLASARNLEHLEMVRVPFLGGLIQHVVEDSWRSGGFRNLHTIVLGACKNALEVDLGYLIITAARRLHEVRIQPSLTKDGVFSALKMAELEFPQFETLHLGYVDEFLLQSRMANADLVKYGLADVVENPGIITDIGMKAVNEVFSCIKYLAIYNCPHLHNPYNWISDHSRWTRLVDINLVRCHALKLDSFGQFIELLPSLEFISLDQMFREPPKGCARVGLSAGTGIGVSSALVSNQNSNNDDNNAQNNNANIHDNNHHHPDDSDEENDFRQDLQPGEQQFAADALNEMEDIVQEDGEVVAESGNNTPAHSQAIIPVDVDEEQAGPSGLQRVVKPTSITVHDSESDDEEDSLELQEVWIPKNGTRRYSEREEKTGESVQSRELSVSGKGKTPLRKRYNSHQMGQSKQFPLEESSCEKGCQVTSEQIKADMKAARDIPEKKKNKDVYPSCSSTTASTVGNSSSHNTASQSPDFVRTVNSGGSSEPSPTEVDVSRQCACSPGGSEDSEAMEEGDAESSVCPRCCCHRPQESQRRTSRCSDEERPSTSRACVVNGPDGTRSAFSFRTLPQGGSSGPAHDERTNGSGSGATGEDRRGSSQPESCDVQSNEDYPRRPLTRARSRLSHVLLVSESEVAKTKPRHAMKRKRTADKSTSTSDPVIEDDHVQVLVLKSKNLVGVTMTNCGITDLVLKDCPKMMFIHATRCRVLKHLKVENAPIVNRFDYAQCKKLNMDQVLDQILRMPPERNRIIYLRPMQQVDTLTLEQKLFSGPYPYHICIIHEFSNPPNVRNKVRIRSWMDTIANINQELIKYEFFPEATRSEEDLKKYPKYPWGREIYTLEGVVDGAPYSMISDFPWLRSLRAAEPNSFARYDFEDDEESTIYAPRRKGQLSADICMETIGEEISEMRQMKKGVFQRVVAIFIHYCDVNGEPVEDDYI
Assay: proximity labelling; BioID: FLAGBirA*-FBXO38 induced with tetracycline in 293 T-REx cells with 50 µM biotin for 24 hrs; Streptavidin Sepharose beads; LC-MS/MS; FLAGBirA* alone as control; BFDR ≤ 0.01

binding: binds
Substance: Kinesin Family member 20B (KIF20B), endogenous (from UniProt Q96Q89 1-1820)

No constants are given. Whether binding was seen depends on the method and setting. Binding seen in cells or lysates may run through a third protein. Here binding means that the protein was enriched with, or labelled near, the bait; the list need not be complete. Tags and fused reporters may be left off the sequences shown.
